We go through one molecule from article PMC7594058.

Results are given in words; binding and its absence hold for the method and conditions named. Binding seen in cells or lysates may run through a third protein. Some results given as binding are weak or reduced against the parent protein; the word gives no strength. Sequences can lack the tags named with a protein.

Common to all, as to assay: pull-down; only the target purified
In assay [1] the target is T1, GST-JCV LT-Ag (aa 1–688, full-length) (JC virus (JCV)) (UniProt P03072).
T1 sequence: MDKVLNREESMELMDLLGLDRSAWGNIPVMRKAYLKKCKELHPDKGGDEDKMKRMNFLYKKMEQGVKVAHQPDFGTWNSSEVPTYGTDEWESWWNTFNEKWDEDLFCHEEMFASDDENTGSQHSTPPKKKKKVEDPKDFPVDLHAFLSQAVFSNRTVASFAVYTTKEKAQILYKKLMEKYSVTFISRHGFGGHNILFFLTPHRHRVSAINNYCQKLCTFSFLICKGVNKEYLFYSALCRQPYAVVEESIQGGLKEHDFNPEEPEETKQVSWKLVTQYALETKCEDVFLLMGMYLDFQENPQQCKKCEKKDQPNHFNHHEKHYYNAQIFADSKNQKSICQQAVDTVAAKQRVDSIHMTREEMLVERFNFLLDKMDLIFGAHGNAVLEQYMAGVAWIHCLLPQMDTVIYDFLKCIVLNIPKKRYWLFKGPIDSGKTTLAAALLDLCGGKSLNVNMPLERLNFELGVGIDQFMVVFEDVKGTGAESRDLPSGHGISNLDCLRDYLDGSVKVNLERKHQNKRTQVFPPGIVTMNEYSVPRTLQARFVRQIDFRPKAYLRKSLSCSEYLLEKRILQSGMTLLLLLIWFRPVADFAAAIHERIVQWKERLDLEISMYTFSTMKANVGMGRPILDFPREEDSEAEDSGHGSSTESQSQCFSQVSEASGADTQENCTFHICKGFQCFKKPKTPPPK

In assay [2] the target is GST-JCV LT-Ag (1–411) (JC virus (JCV)) (UniProt P03072).
Assay [3] addresses GST-JCV LT-Ag (1–82) (JC virus (JCV)) (UniProt P03072).
Assay [4] deals with GST-JCV LT-Ag (1–265) (JC virus (JCV)) (UniProt P03072).

B1: FLAG-tagged Smc6 (structural maintenance of chromosomes protein 6) (protein, UniProt Q96SB8 1-1091)
chain: MAKRKEENFSSPKNAKRPRQEELEDFDKDGDEDECKGTTLTAAEVGIIESIHLKNFMCHSMLGPFKFGSNVNFVVGNNGSGKSAVLTALIVGLGGRAVATNRGSSLKGFVKDGQNSADISITLRNRGDDAFKASVYGNSILIQQHISIDGSRSYKLKSATGSVVSTRKEELIAILDHFNIQVDNPVSVLTQEMSKQFLQSKNEGDKYKFFMKATQLEQMKEDYSYIMETKERTKEQIHQGEERLTELKRQCVEKEERFQSIAGLSTMKTNLESLKHEMAWAVVNEIEKQLNAIRDNIKIGEDRAARLDRKMEEQQVRLNEAEQKYKDIQDKLEKISEETNARAPECMALKADVVAKKRAYNEAEVLYNRSLNEYKALKKDDEQLCKRIEELKKSTDQSLEPERLERQKKISWLKERVKAFQNQENSVNQEIEQFQQAIEKDKEEHGKIKREELDVKHALSYNQRQLKELKDSKTDRLKRFGPNVPALLEAIDDAYRQGHFTYKPVGPLGACIHLRDPELALAIESCLKGLLQAYCCHNHADERVLQALMKRFYLPGTSRPPIIVSEFRNEIYDVRHRAAYHPDFPTVLTALEIDNAVVANSLIDMRGIETVLLIKNNSVARAVMQSQKPPKNCREAFTADGDQVFAGRYYSSENTRPKFLSRDVDSEISDLENEVENKTAQILNLQQHLSALEKDIKHNEELLKRCQLHYKELKMKIRKNISEIRELENIEEHQSVDIATLEDEAQENKSKMKMVEEHMEQQKENMEHLKSLKIEAENKYDAIKFKINQLSELADPLKDELNLADSEVDNQKRGKRHYEEKQKEHLDTLNKKKRELDMKEKELEEKMSQARQICPERIEVEKSASILDKEINRLRQKIQAEHASHGDREEIMRQYQEARETYLDLDSKVRTLKKFIKLLGEIMEHRFKTYQQFRRCLTLRCKLYFDNLLSQRAYCGKMNFDHKNETLSISVQPGEGNKAAFNDMRALSGGERSFSTVCFILSLWSIAESPFRCLDEFDVYMDMVNRRIAMDLILKMADSQRFRQFILLTPQSMSSLPSSKLIRILRMSDPERGQTTLPFRPVTQEEDDDQR
With B1, the binding entry in assay [1] is recorded as “binds”; in assay [2] it was “binds”; in assay [3], “no binding”; in assay [4], “binds”.
